The other results are listed elsewhere or left out.
What was measured:
Experiment in all cases: log2 fold change, soluble protein after heating vs DMSO (PISA); higher = thermal stabilisation; K562 lysate, 10 uM; active = over 0.2 and 3.5 SD of the protein, either way, in both replicates (recomputed)
nilotinib = compound: Cc1cn(-c2cc(NC(=O)c3ccc(C)c(Nc4nccc(-c5cccnc5)n4)c3)cc(C(F)(F)F)c2)cn1 [nilotinib]
In short: (§1)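 Following dounce homogenisation of K562 pellets in PBS pH 7.4 with 1 mM MgCl2, crude extract at 1 mg/mL protein was incubated for 30 min with 10 μM compound. Aliquots were then heated for 3 min over 48°C-58°C and pooled, NP-40 was added to 0.5% at 4°C, and soluble protein was recovered as the supernatant at 21,000xg for 90 min. Channel-sum-equalised TMTpro 16plex LC-MS/MS quantified this protein. Each value, from duplicates, is a log-two fold change in thermal stability relative to solvent controls.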

Protein sequences, listed by entry. Tags and fused reporters are not part of them. Lines headed by an entry give the natural chain unless they say otherwise; changes in a name come on top.
UniProt Q9NVN8: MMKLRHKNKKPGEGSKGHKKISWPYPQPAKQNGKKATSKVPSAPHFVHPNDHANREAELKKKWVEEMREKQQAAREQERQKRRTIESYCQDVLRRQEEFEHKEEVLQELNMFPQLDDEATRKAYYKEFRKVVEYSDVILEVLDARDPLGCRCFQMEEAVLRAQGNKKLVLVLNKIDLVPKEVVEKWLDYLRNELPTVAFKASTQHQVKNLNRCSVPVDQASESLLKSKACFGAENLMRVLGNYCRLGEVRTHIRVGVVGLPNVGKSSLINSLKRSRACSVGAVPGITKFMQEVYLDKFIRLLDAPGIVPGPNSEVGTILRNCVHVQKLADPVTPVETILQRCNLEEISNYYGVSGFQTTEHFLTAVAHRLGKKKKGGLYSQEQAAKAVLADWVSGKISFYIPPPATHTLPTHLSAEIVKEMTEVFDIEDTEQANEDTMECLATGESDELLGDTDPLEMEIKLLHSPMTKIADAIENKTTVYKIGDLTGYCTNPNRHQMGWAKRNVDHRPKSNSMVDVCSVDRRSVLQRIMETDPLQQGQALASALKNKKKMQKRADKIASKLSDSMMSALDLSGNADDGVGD
UniProt P00367: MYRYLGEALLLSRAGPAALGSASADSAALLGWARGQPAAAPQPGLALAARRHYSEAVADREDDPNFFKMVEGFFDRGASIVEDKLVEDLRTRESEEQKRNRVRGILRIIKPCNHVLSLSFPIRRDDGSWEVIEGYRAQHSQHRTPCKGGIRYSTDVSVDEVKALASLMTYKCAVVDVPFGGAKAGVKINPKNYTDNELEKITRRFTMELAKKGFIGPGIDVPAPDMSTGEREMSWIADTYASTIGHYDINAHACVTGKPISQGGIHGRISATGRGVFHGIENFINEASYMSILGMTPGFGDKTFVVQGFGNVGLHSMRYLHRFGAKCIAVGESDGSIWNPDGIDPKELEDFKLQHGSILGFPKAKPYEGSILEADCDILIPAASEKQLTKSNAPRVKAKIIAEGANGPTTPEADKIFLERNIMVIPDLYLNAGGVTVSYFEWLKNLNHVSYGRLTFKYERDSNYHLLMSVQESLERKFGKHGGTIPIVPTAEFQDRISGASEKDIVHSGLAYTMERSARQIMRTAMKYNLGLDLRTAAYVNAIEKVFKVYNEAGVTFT
UniProt Q14161: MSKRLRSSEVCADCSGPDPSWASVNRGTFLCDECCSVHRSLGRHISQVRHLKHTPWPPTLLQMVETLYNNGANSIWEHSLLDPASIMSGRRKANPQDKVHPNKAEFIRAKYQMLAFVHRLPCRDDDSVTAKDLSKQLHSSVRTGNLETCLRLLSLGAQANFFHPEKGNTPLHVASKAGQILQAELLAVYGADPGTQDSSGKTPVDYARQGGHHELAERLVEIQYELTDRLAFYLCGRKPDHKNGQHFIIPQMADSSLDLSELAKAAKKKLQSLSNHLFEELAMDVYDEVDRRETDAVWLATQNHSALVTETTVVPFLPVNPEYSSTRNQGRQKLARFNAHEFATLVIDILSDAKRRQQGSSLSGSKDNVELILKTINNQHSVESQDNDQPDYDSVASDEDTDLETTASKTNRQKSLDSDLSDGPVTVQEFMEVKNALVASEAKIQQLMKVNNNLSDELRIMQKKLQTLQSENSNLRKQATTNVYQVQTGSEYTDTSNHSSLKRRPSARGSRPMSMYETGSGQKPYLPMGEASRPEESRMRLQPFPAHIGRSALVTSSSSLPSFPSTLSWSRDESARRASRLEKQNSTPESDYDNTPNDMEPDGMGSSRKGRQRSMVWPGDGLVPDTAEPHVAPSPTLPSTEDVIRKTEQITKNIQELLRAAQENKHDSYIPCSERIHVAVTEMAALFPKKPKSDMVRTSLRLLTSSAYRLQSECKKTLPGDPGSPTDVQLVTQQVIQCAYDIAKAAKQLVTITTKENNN
UniProt O94925: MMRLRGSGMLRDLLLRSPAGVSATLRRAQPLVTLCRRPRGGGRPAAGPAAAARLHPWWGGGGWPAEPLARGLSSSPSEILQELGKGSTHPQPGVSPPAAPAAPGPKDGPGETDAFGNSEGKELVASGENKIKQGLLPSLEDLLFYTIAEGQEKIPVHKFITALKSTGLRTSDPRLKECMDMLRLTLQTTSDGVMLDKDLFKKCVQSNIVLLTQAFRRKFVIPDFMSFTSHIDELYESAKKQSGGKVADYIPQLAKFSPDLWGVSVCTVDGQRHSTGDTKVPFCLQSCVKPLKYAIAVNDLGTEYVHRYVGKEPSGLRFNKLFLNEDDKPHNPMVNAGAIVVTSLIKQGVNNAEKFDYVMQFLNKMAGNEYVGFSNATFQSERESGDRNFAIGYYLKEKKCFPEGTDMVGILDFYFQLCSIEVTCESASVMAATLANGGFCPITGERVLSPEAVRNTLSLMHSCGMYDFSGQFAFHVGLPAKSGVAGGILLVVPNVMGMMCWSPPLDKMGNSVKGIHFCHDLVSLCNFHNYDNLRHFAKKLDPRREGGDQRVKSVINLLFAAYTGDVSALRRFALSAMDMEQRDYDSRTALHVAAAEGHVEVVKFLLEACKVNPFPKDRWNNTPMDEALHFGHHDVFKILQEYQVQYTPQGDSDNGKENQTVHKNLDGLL
UniProt Q9Y3E0: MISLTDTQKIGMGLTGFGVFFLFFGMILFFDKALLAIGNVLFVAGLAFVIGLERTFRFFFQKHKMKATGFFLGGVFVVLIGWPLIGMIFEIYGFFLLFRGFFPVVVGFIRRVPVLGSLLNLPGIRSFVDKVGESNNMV
UniProt Q8TBA6: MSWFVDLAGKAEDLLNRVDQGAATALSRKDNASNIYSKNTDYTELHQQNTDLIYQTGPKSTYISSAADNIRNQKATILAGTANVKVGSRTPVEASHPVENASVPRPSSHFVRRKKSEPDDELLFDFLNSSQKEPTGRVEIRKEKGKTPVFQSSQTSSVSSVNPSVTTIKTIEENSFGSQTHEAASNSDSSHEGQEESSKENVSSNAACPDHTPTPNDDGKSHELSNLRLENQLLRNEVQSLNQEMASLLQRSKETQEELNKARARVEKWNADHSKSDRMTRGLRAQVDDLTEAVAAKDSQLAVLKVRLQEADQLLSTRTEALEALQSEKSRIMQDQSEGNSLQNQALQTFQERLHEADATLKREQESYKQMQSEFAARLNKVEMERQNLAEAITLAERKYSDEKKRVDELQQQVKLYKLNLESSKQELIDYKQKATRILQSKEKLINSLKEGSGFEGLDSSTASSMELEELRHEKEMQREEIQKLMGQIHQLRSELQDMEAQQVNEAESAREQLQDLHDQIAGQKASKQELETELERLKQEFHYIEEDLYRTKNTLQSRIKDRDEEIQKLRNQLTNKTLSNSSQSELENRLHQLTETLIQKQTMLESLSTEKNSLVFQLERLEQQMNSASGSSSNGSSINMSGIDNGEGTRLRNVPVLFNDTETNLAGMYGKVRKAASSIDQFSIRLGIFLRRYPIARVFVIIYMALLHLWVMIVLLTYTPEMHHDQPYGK
UniProt O75496: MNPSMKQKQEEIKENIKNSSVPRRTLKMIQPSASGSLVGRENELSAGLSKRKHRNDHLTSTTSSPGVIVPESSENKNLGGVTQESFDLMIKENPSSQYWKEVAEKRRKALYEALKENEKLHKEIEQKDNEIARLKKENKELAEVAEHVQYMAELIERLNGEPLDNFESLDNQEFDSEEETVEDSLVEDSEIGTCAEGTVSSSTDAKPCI
UniProt Q9BVP2: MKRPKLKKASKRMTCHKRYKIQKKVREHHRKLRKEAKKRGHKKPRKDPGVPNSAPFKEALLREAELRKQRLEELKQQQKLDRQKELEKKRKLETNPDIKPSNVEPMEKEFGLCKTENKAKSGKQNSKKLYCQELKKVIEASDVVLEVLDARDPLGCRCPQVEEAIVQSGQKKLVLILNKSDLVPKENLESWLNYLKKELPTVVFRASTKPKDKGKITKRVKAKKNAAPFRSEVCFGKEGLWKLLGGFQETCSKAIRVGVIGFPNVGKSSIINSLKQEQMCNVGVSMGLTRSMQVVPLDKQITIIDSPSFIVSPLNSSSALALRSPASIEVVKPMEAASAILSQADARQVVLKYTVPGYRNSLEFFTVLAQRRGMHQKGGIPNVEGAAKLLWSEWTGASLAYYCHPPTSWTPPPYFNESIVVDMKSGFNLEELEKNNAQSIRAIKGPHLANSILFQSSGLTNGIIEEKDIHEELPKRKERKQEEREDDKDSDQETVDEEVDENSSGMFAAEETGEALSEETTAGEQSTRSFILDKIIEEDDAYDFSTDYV
UniProt A6NDN3: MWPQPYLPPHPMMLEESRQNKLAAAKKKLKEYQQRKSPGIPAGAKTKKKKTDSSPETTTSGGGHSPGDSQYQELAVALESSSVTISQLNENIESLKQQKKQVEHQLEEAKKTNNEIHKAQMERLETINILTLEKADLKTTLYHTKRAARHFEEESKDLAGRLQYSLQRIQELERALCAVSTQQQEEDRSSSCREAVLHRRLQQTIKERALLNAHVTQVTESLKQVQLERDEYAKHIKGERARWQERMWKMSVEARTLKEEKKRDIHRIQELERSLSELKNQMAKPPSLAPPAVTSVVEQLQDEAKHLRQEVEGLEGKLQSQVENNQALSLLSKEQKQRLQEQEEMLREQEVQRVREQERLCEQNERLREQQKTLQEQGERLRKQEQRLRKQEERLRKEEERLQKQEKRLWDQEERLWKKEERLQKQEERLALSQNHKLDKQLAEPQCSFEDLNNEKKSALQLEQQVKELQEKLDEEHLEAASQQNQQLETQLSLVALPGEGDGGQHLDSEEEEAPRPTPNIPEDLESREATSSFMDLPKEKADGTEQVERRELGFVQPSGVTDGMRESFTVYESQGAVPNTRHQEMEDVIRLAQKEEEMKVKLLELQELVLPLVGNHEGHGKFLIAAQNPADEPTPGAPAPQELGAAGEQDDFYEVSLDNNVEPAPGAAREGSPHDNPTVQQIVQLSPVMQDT
UniProt P81274: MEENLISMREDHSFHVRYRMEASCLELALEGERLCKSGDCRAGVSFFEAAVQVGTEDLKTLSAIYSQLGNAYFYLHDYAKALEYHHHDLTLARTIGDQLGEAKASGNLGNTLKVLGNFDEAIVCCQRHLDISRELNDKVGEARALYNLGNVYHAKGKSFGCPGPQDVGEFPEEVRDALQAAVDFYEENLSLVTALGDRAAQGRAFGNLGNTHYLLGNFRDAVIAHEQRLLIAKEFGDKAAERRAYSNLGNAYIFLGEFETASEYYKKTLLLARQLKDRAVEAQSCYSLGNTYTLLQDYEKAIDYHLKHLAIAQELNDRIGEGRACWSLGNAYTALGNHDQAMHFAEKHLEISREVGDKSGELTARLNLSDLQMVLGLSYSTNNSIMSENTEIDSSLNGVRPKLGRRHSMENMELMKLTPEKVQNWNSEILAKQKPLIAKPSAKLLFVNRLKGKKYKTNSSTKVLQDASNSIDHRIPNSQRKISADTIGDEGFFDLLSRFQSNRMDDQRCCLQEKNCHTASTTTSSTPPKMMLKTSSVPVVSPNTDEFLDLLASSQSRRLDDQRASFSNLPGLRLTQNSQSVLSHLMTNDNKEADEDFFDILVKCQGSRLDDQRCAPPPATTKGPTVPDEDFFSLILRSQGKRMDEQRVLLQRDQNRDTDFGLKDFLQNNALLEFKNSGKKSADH
UniProt P21695: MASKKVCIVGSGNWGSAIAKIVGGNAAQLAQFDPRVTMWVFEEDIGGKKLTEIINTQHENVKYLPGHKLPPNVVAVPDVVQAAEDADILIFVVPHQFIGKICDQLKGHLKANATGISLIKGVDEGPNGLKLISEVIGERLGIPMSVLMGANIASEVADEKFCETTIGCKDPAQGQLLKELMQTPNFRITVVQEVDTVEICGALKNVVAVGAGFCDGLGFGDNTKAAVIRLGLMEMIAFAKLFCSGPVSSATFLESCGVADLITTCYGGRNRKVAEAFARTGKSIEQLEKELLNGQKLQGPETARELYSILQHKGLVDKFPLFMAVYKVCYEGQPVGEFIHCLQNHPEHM
UniProt P62873, whole entry, looked up: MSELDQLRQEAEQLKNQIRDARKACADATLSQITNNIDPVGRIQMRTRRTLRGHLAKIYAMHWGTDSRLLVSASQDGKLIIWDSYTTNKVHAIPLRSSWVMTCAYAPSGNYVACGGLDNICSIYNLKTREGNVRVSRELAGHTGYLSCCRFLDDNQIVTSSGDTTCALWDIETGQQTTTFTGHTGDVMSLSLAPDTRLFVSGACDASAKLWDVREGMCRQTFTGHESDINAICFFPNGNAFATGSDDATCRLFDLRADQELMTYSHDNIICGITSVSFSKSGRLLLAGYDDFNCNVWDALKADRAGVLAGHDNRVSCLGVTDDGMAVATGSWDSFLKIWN
UniProt O14653: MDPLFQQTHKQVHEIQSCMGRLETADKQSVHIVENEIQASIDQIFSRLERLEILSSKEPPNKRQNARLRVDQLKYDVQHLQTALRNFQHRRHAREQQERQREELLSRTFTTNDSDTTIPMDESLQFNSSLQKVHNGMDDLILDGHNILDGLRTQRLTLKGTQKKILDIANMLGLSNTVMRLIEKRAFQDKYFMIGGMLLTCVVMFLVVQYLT

[1] = compound: Cc1nc(Nc2n[nH]c3c2CN(C(=O)N[C@H](CN(C)C)c2ccccc2)C3(C)C)c2sccc2n1
In short: as §1

dasatinib = compound: Cc1nc(Nc2ncc(C(=O)Nc3c(C)cccc3Cl)s2)cc(N2CCN(CCO)CC2)n1 [dasatinib]
In short: as §1

[2] = compound: Cc1ncc(-c2ccnc(Nc3ccc(S(C)(=O)=O)cc3)n2)n1C(C)C
In short: as §1

[3] = compound: Cn1cc(-c2ccc3c(c2)CCN3C(=O)Cc2cccc(C(F)(F)F)c2)c2c(N)ncnc21
In short: as §1

quisinostat = compound: Cn1cc(CNCC2CCN(c3ncc(C(=O)NO)cn3)CC2)c2ccccc21 [quisinostat]
In short: as §1

tipifarnib = compound: Cn1cncc1[C@@](N)(c1ccc(Cl)cc1)c1ccc2c(c1)c(-c1cccc(Cl)c1)cc(=O)n2C [tipifarnib]
In short: as §1

[4] = compound: NC(=O)Nc1cc(-c2cccc(F)c2)sc1C(=O)N[C@H]1CCCNC1
In short: as §1

[5] = compound: NC(=O)c1cnc(N[C@@H]2CCCC[C@@H]2N)nc1Nc1cccc(-n2nccn2)c1
In short: as §1

[6] = compound: NC1(c2ccc(-c3nc4ccn5c(=O)[nH]nc5c4cc3-c3ccccc3)cc2)CCC1
In short: as §1

[7] = compound: NCC(=O)Nc1ccc(-n2nc(C(F)(F)F)cc2-c2ccc3c(ccc4ccccc43)c2)cc1
In short: as §1

vorinostat = compound: O=C(CCCCCCC(=O)Nc1ccccc1)NO [vorinostat]
In short: as §1

silmitasertib = compound: O=C(O)c1ccc2c(c1)nc(Nc1cccc(Cl)c1)c1ccncc12 [silmitasertib]
In short: as §1

[8] = compound: O=C1NC(=O)C(c2cnc3ccccn23)=C1c1cn2c3c(cc(F)cc13)CN(C(=O)N1CCCCC1)CC2
In short: as §1

entospletinib = compound: c1cn2cc(-c3ccc4cn[nH]c4c3)nc(Nc3ccc(N4CCOCC4)cc3)c2n1 [entospletinib]
In short: as §1

Target	log2 fold change (nilotinib)	log2 fold change [1]	log2 fold change (dasatinib)	log2 fold change [2]	log2 fold change [3]	log2 fold change (quisinostat)	log2 fold change (tipifarnib)	log2 fold change [4]	log2 fold change [5]	log2 fold change [6]	log2 fold change [7]	log2 fold change (vorinostat)	log2 fold change (silmitasertib)	log2 fold change [8]	log2 fold change (entospletinib)
GPS1 (UniProt A8K070)	inactive: 0.109	inactive: 0.06	inactive: 0.044	inactive: 0.105	inactive: 0.009	inactive: 0.07	inactive: -0.042	inactive: -0.005	inactive: -0.008	inactive: -0.002	inactive: -0.052	inactive: 0.043	inactive: -0.051	inactive: 0.037	inactive: 0.004
GPBP1 isoform 2 (UniProt Q86WP2)	inactive: -0.237	inactive: 0.18	inactive: 0.044	inactive: -0.119	inactive: 0.002	inactive: -0.059	inactive: -0.176	inactive: 0.022	inactive: 0.006	inactive: 0.077	inactive: -0.005	inactive: -0.102	inactive: -0.028	inactive: -0.033	inactive: 0.053
GNL3L (UniProt Q9NVN8)	inactive: 0.035	inactive: -0.004	inactive: 0.014	inactive: -0.04	inactive: 0.089	inactive: -0.155	inactive: 0.006	inactive: 0.037	inactive: -0.233	inactive: -0.059	inactive: -0.12	inactive: -0.161	inactive: -0.094	inactive: -0.072	inactive: -0.07
GLUD1 (UniProt P00367)	inactive: 0.11	inactive: 0.029	inactive: 0.031	inactive: -0.046	inactive: -0.01	inactive: 0.029	inactive: -0.002	inactive: -0.032	inactive: 0.023	inactive: 0.017	inactive: -0.014	inactive: 0.179	inactive: -0.002	inactive: -0.058	inactive: 0.003
GIT2 (UniProt Q14161)	inactive: -0.046	inactive: 0.057	inactive: 0.014	inactive: 0.01	inactive: 0.004	inactive: -0.067	inactive: -0.045	inactive: -0.005	inactive: -0.066	inactive: 0.016	inactive: -0.072	inactive: 0.044	inactive: -0.014	inactive: -0.04	inactive: 0.052
GLS isoform 3 (UniProt O94925)	inactive: 0.005	inactive: 0.007	inactive: 0.087	inactive: -0.002	inactive: -0.006	inactive: -0.044	inactive: -0.002	inactive: 0.092	inactive: 0.031	inactive: -0.033	inactive: 0.003	inactive: -0.133	inactive: 0.017	inactive: 0.066	inactive: 0.028
GNPDA1 (UniProt P46926)	inactive: -0.002	inactive: -0.008	inactive: 0.023	inactive: -0.033	inactive: -0.017	inactive: 0	inactive: 0.026	inactive: -0.009	inactive: -0.002	inactive: -0.004	inactive: -0.002	inactive: 0.114	inactive: 0.001	inactive: 0.004	inactive: -0.003
GGCX (UniProt P38435)	inactive: -0.003	inactive: 0.025	inactive: 0.004	inactive: -0.01	inactive: -0.12	inactive: 0.03	inactive: -0.026	inactive: 0.008	inactive: 0.033	inactive: 0.003	inactive: 0.109	inactive: 0.033	inactive: -0.036	inactive: -0.013	inactive: -0.067
GOLT1B (UniProt Q9Y3E0)	inactive: -0.005	inactive: 0.077	inactive: 0.013	inactive: 0.085	inactive: 0.056	inactive: -0.038	inactive: -0.043	inactive: 0.046	inactive: -0.014	inactive: -0.047	inactive: -0.014	inactive: -0.099	inactive: 0.02	inactive: 0.057	inactive: 0.008
GPKOW (UniProt Q92917)	inactive: -0.03	inactive: 0.008	inactive: -0.003	inactive: -0.034	inactive: 0.015	inactive: -0.001	inactive: -0.002	inactive: -0.002	inactive: 0	inactive: 0.022	inactive: 0.005	inactive: -0.089	inactive: 0.017	inactive: -0.016	inactive: 0.001
GOLGA5 (UniProt Q8TBA6)	inactive: 0.014	inactive: 0.021	inactive: 0.026	inactive: 0.023	inactive: -0.002	inactive: 0.024	inactive: 0.025	inactive: -0.008	inactive: 0.024	inactive: -0.057	inactive: -0.007	inactive: 0.088	inactive: 0.027	inactive: -0.019	inactive: -0.053
GOPC (UniProt Q9HD26)	inactive: -0.016	inactive: 0.034	inactive: -0.033	inactive: -0.009	inactive: 0.028	inactive: 0.031	inactive: 0.02	inactive: 0.032	inactive: 0.036	inactive: 0.067	inactive: 0.005	inactive: -0.134	inactive: 0.023	inactive: -0.014	inactive: 0.006
GMNN (UniProt O75496)	inactive: -0.03	inactive: -0.025	inactive: 0.014	inactive: 0.007	inactive: 0.014	inactive: -0.028	inactive: 0.001	inactive: 0.017	inactive: 0.012	inactive: 0.032	inactive: -0.021	inactive: 0.071	inactive: -0.004	inactive: 0.01	inactive: 0.021
GNL3 (UniProt Q9BVP2)	inactive: 0.008	inactive: -0.022	inactive: -0.005	inactive: 0.029	inactive: -0.003	inactive: -0.164	inactive: 0.013	inactive: 0.038	inactive: 0.022	inactive: -0.031	inactive: 0.017	inactive: -0.142	inactive: 0.008	inactive: -0.041	inactive: 0.018
GOLGA6B (UniProt A6NDN3)	inactive: 0.039	inactive: -0.102	inactive: 0.009	inactive: -0.075	inactive: 0.161	inactive: -0.355	inactive: 0.051	inactive: 0.106	inactive: -0.008	inactive: -0.082	inactive: 0.019	inactive: 0.117	inactive: -0.002	active: 0.353	inactive: -0.084
GPSM2 (UniProt P81274)	inactive: -0.175	inactive: 0.125	inactive: 0.115	inactive: 0.255	inactive: 0.135	inactive: -0.299	inactive: 0.043	inactive: 0.014	inactive: -0.188	inactive: 0.007	inactive: 0.108	inactive: -0.152	inactive: 0.129	inactive: 0.074	inactive: -0.04
GNAI2 (UniProt P04899)	inactive: 0.041	inactive: -0.04	inactive: -0.004	inactive: 0.047	inactive: -0.006	inactive: -0.042	inactive: 0.018	inactive: 0.045	inactive: 0.007	inactive: -0.006	inactive: -0.036	inactive: -0.045	inactive: 0.017	inactive: 0.018	inactive: -0.031
GNAI3 (UniProt P08754)	inactive: -0.006	inactive: -0.004	inactive: 0.105	inactive: 0.028	inactive: 0.018	inactive: -0.055	inactive: 0.068	inactive: 0.011	inactive: 0.03	inactive: -0.001	inactive: 0.043	inactive: -0.021	inactive: 0.015	inactive: -0.086	inactive: 0.1
GPD1 (UniProt P21695)	inactive: 0.205	inactive: -0.107	inactive: -0.157	inactive: -0.095	inactive: -0.083	inactive: -0.382	inactive: -0.049	inactive: 0.108	inactive: 0.066	inactive: -0.146	inactive: 0.205	inactive: 0.187	inactive: -0.046	inactive: 0.119	inactive: -0.024
GNB1 (UniProt P62873)	inactive: 0.075	inactive: 0.057	inactive: -0.078	inactive: 0.098	inactive: -0.029	inactive: 0.107	inactive: 0.019	inactive: -0.137	inactive: -0.027	inactive: -0.018	inactive: 0.026	inactive: 0.064	inactive: 0.041	inactive: -0.037	inactive: 0.054
GOSR2 isoform 2 (UniProt O14653)	inactive: 0.033	inactive: -0.114	inactive: -0.021	inactive: -0.048	inactive: -0.003	inactive: 0.028	inactive: -0.082	inactive: 0.029	inactive: 0.02	inactive: 0.026	inactive: 0.034	inactive: -0.014	inactive: -0.028	inactive: -0.017	inactive: -0.05

Already shown: an excerpt of the list.
Target	log2 fold change (nilotinib)	log2 fold change [1]	log2 fold change (dasatinib)	log2 fold change [2]	log2 fold change [3]	log2 fold change (quisinostat)	log2 fold change (tipifarnib)	log2 fold change [4]	log2 fold change [5]	log2 fold change [6]	log2 fold change [7]	log2 fold change (vorinostat)	log2 fold change (silmitasertib)	log2 fold change [8]	log2 fold change (entospletinib)
GOLT1B (UniProt Q9Y3E0)	inactive: -0.005	inactive: 0.077	inactive: 0.013	inactive: 0.085	inactive: 0.056	inactive: -0.038	inactive: -0.043	inactive: 0.046	inactive: -0.014	inactive: -0.047	inactive: -0.014	inactive: -0.099	inactive: 0.02	inactive: 0.057	inactive: 0.008
GPKOW (UniProt Q92917)	inactive: -0.03	inactive: 0.008	inactive: -0.003	inactive: -0.034	inactive: 0.015	inactive: -0.001	inactive: -0.002	inactive: -0.002	inactive: 0	inactive: 0.022	inactive: 0.005	inactive: -0.089	inactive: 0.017	inactive: -0.016	inactive: 0.001
